{"source": "PubChem BioAssay AID602313", "about": "(National Center for Advancing Translational Sciences (NCATS), 2012)", "note": "In all, about 390,000 compounds went through this assay and about 760 (0.19%) were called active. The shares of active, inactive and inconclusive entries below differ from those in the screen. Calls follow the shape of the dose curve; as a rule, active = well fitted inhibition curve with a large enough effect; inconclusive = small, poorly fitted or top-dose-only effect; inactive = flat fitted curve, though single readings scatter. Potencies of inconclusive entries are doubtful fits and often do not repeat. Potency is read from the fitted curve at half-maximal effect."}
{"test": "qHTS for Inhibitors of Vif-A3F Interactions: qHTS; also: nearly all actives have a fitted effect of over 65% in size; as to activity, negative = active: % of control where 0% means no effect", "conditions": "HeLa A3F-eYFP + Vif (tagged APOBEC3F with the HIV-1 protein that degrades it), YFP fluorescence increase; series mostly up to 46.1 µM; activity, negative = active: at the top concentration", "outline": "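HeLa cells stably expressing Vif plus C-terminally eYFP-tagged A3F were seeded, incubated overnight at 37 deg C, dosed with compound, incubated overnight again at 37 deg C. Yellow fluorescence (Ex 488/Em 500-530) reported blocked Vif-mediated A3F-eYFP degradation.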"}
{"smiles": "COCCCN(Cc1ccco1)C(=O)c1cc2c(s1)-c1ccccc1OC2", "activity, negative = active": "inactive: 4.27%"}
{"smiles": "C/C(O)=C(/C=Nc1ccccc1)C(=O)Nc1ccccc1", "Potency": "inconclusive: 2.82 µM [inhibitor, single point]"}
{"smiles": "Cn1cc(/C=N\\O)nc2c(=O)n(-c3ccccc3)c(=O)nc1-2", "Potency": "inconclusive: 2.82 µM [inhibitor, partial curve, poor fit]"}
{"smiles": "O=C(Nc1cc2c(cc1Cl)-c1ccc([N+](=O)[O-])cc1C2=NO)C(F)(F)F", "Potency": "inconclusive: 35.5 µM [inhibitor, single point]"}
{"smiles": "CC(=O)OCC1=C(C(=O)O)N2C(=O)C(NC(=O)c3ccc(F)cc3)C2SC1", "note": "(centres undefined)", "Potency": "inconclusive: 25.1 µM [inhibitor, single point]"}
{"smiles": "CC1(C)Cc2ccccc2C2CC(O)C(=O)N21", "note": "(centres undefined)", "Potency": "active: 25.1 µM"}
{"smiles": "N#Cc1cccc(C(c2nnnn2C2CCCC2)N2CCCCCC2)c1", "note": "(centres undefined)", "Potency": "inconclusive: 6.31 µM [inhibitor, single point]"}
{"smiles": "O=C(CSc1nc(-c2cccs2)nc2cc(=O)[nH]n12)Nc1ccccc1", "Potency": "inconclusive: 28.2 µM [inhibitor, single point]"}
{"smiles": "CCOc1ccc(NC(=O)CN2CCC(n3cnc4cc(F)ccc43)CC2)cc1", "Potency": "inconclusive: 35.5 µM [inhibitor, single point]"}
{"smiles": "CC(Cl)c1cc(-c2ncc(C(F)(F)F)cc2Cl)no1", "note": "(centres undefined)", "Potency": "inconclusive: 35.5 µM [inhibitor, single point]"}
{"smiles": "Cc1ccc(S(=O)(=O)/N=C2/NC(=O)/C(=C/c3ccc(Br)o3)S2)cc1", "activity, negative = active": "inactive: 4.28%"}
{"smiles": "COc1cc(C(=O)NCC(=O)N/N=C/c2ccc(-c3ccc([N+](=O)[O-])cc3)o2)cc(OC)c1OC", "Potency": "inconclusive: 35.5 µM [inhibitor, single point]"}
{"smiles": "COc1ccc(CCN2C(=S)N(c3ccccc3)C(=O)C2CC(=O)O)cc1OC", "note": "(centres undefined)", "activity, negative = active": "inactive: -18.7%"}
{"smiles": "CCOC(=O)c1c(NC(=O)COC(=O)c2ccc(C)s2)sc2c1CC(C)(C)NC2(C)C", "Potency": "inconclusive: 1.58 µM [inhibitor, partial curve, poor fit]"}
{"smiles": "Cc1noc(C(=O)Nc2ccccc2C(F)(F)F)c1Cl", "activity, negative = active": "inactive: 1.15%"}
{"smiles": "CCN1C(=O)/C(=C\\C=C\\c2ccccc2[N+](=O)[O-])SC1=S", "Potency": "inconclusive: 17.8 µM [inhibitor, partial curve, poor fit]"}
{"smiles": "NS(=O)(=O)c1ccc(CNC(=O)c2cc(-c3cccs3)nc3ccccc23)cc1", "activity, negative = active": "inactive: 1.63%"}
{"smiles": "Cc1ccc(CCNC(=O)c2coc3nc4ccccc4nc23)cc1", "Potency": "inconclusive: 22.4 µM [inhibitor, single point]"}
{"smiles": "CCN1CCN(CCCNC(=O)c2ccc3nc(Cc4ccc(OC)cc4)oc3c2)CC1", "Potency": "inconclusive: 5.62 µM [inhibitor, single point]"}
{"smiles": "CCOC(=O)c1c(S(=O)(=O)N2CCCC(C(=O)Nc3ccc(OCC)cc3)C2)c(C)n(C)c1C", "note": "(centres undefined)", "activity, negative = active": "inactive: -9.29%"}
{"smiles": "COCc1[nH]nc2c1C(c1ccc(F)cc1F)C(C#N)=C(N)O2", "note": "(centres undefined)", "activity, negative = active": "inactive: -6.03%"}
{"smiles": "COc1cccc(NC(=S)NC2CC(C)CC(C)(C)C2)c1", "note": "(centres undefined)", "Potency": "inconclusive: 11.2 µM [inhibitor, single point]"}
{"smiles": "CCOc1ccc(NC(=O)/C=C/c2ccccc2)c([N+](=O)[O-])c1", "Potency": "inconclusive: 11.2 µM [inhibitor, single point]"}
{"smiles": "Cc1cc(C)nc(NS(=O)(=O)c2ccc(NC(=O)c3cccs3)cc2)n1", "activity, negative = active": "inactive: -13.4%"}
{"smiles": "CC(=O)OCC1=C(C(=O)O)N2C(=O)C(NC(=O)C(C)Cn3nc(C)c(Cl)c3C)C2SC1", "note": "(centres undefined)", "Potency": "inconclusive: 12.6 µM [inhibitor, single point]"}
{"smiles": "CC(C)(C)c1ccccc1OCCOCCNCc1ccccc1", "Potency": "inconclusive: 35.5 µM [inhibitor, single point]"}
{"smiles": "O=C(Nc1cc(Cl)ccc1F)C1=COCCO1", "Potency": "inconclusive: 35.5 µM [inhibitor, single point]"}
{"smiles": "COc1ccc(/C=N/n2c(=O)[nH]c3c([nH]c4ccc(Cl)cc43)c2=O)cc1CN1CCCCC1", "Potency": "inconclusive: 25.1 µM [inhibitor, partial curve, poor fit]"}
{"smiles": "CCC(=O)Nc1cc(SCCO)cc([N+](=O)[O-])c1", "activity, negative = active": "inactive: -9.58%"}
{"smiles": "N#CC1=C(Nc2ccccc2Cl)SC(c2ccccc2O)NC1=O", "note": "(centres undefined)", "Potency": "inconclusive: 22.4 µM [inhibitor, single point]"}
{"smiles": "CC(C)OC(=O)CSc1nc2cc3c(cc2cc1C#N)OCO3", "activity, negative = active": "inactive: -3.44%"}
{"smiles": "O=C(Nc1ccc(N2CCOCC2)nc1)c1ccc(Cl)cc1", "activity, negative = active": "inactive: 3.88%"}
{"smiles": "CCOc1cccc(-c2nnc3sc(COc4ccccc4)nn23)c1", "Potency": "inconclusive: 3.16 µM [inhibitor, partial curve, poor fit]"}
{"smiles": "O=c1c2ccccc2sn1-c1cccc(Cl)c1", "Potency": "inconclusive: 3.16 µM [inhibitor, single point]"}
{"smiles": "CC(C)Oc1ccc(CNC(=S)Nc2ccccc2)cc1Cl", "Potency": "inconclusive: 35.5 µM [inhibitor, single point]"}
{"smiles": "Cc1cccc(Oc2cc([N+](=O)[O-])cc3c2C(=O)Nc2ccccc2O3)c1", "Potency": "inconclusive: 35.5 µM [inhibitor, single point]"}
{"smiles": "COc1ccccc1-n1c(-c2ccccc2)c[n+]2c1CCc1ccccc1-2", "Potency": "inconclusive: 35.5 µM [inhibitor, single point]"}
{"smiles": "Cn1c(-c2c(N)n(CCc3ccccc3)c3nc4ccccc4nc23)nc2ccccc21", "Potency": "inconclusive: 22.4 µM [inhibitor, single point]"}
{"smiles": "N#C/C(=C\\c1ccc(N2CCOCC2)o1)C(=O)NCC1CCCO1", "note": "(centres undefined)", "Potency": "inconclusive: 22.4 µM [inhibitor, single point]"}
{"smiles": "CCc1cccc(C)c1NC(=O)c1ccc2c(c1)CCN2S(C)(=O)=O", "Potency": "inconclusive: 2.82 µM [inhibitor, single point]"}
{"smiles": "COc1cc(OC)c(OC)cc1/C=C1\\Oc2cc(OS(C)(=O)=O)ccc2C1=O", "Potency": "inconclusive: 22.4 µM [inhibitor, single point]"}
{"smiles": "CCOC(=O)c1cnc2c(OC)cccc2c1N1CCN(c2ccccn2)CC1", "activity, negative = active": "inactive: 1.76%"}
{"smiles": "Clc1ccc2nnnc(-c3ccccc3)c2c1", "Potency": "inconclusive: 3.55 µM [inhibitor, single point]"}
{"smiles": "O=C(CCSc1ccccc1)Nc1nc2c(s1)COc1ccccc1-2", "Potency": "inconclusive: 35.5 µM [inhibitor, single point]"}
{"smiles": "Nc1c(C(=O)c2ccc(F)cc2)oc2ccccc12", "activity, negative = active": "inactive: -6.02%"}
{"smiles": "COc1ccc(NC(=O)Cn2c(=O)n(-c3ccc(C)cc3)c(=O)c3c2c2cc(C)ccc2n3C)cc1", "activity, negative = active": "inactive: -1.17%"}
{"smiles": "COc1ccccc1/C=C/C(=O)/C=C/c1ccccc1O", "Potency": "inconclusive: 3.55 µM [inhibitor, single point]"}
{"smiles": "Cc1ccc(CN2C(=O)SC(Nc3ccc(Cl)cc3)C2=O)cc1", "note": "(centres undefined)", "Potency": "inconclusive: 35.5 µM [inhibitor, single point]"}
{"smiles": "CCN=c1scc(-c2cccs2)n1/N=C/c1cc(OC)ccc1O", "activity, negative = active": "inactive: -0.524%"}
{"smiles": "COc1ccc(-c2nc3cnccn3c2NC(C)(C)CC(C)(C)C)cc1O", "activity, negative = active": "inactive: 5.18%"}
{"smiles": "COc1ccccc1CNC(=O)c1cnc2sc(N3CCCCC3)nn2c1=O", "activity, negative = active": "inactive: -3.23%"}
{"smiles": "CC1(C)C(=O)C=CC(=O)C(C)(C)C(=O)C=CC(=O)C(C)(C)C2=CC=C(O2)C(C)(C)C(=O)C=CC1=O", "activity, negative = active": "inactive: -14.5%"}
{"smiles": "Cc1ccc(N(CC(=O)N2CCN(c3ccccc3)CC2)S(=O)(=O)c2c(C)noc2C)cc1", "activity, negative = active": "inactive: -20.5%"}
{"smiles": "CCOc1ccccc1N1CCN(C2=C(NS(=O)(=O)c3cccs3)C(=O)c3ccccc3C2=O)CC1", "activity, negative = active": "inactive: -0.106%"}
{"smiles": "CNC(=S)N=Nc1c(O)[nH]c2ccccc12", "Potency": "inconclusive: 20 µM [inhibitor, partial curve, poor fit]"}
{"smiles": "CC(=O)c1sc(NC(=O)Cc2c(F)cccc2Cl)nc1C", "activity, negative = active": "inactive: -18.9%"}
{"smiles": "Cc1ccc(N2C(=O)c3cccc4c(N)ccc(c34)C2=O)c2cccnc12", "Potency": "inconclusive: 1.26 µM [inhibitor, partial curve, poor fit]"}
{"smiles": "Cc1ccc(C)c(SCC(=O)OC/C(O)=C(\\C#N)c2nc3ccccc3[nH]2)c1", "Potency": "inconclusive: 22.4 µM [inhibitor, partial curve, poor fit]"}
{"smiles": "O=C(N/N=C1\\CC(c2ccccc2)Oc2ccccc21)c1cccnc1", "note": "(centres undefined)", "Potency": "inconclusive: 35.5 µM [inhibitor, single point]"}
{"smiles": "Cc1ccc(NC(=O)C(=O)NCCN2CCN(S(C)(=O)=O)CC2)cc1C", "Potency": "inconclusive: 3.98 µM [inhibitor, single point]"}
{"smiles": "COc1cc(-n2c(=O)c3ccccc3n(Cc3cccc(Cl)c3)c2=O)cc(OC)c1OC", "Potency": "inconclusive: 35.5 µM [inhibitor, single point]"}
{"smiles": "CC(=O)Nc1ccc(S(=O)(=O)Nc2cc(C)cn(Cc3ccccc3)c2=O)cc1", "Potency": "active: 22.4 µM"}
{"smiles": "CN(C)c1ccc(C=c2c3ccccc3n3c2cc(-c2ccc(Cl)cc2)[n+]3C)cc1", "Potency": "inconclusive: 35.5 µM [inhibitor, single point]"}
{"smiles": "Cc1ccc(C(=O)c2c3ccc([N+](=O)[O-])cc3[n+]([O-])n2CCC(N)=O)cc1", "Potency": "inconclusive: 11.2 µM [inhibitor, single point]"}
{"smiles": "COc1cccc(-c2cn3c(n2)sc2cc(C(=O)NC4CCCCC4)ccc23)c1", "Potency": "inconclusive: 17.8 µM [inhibitor, single point]"}
{"smiles": "O=C(c1ccc(Cl)cc1)C1CCN(C(=O)C2CC2)CC1", "activity, negative = active": "inactive: 7.51%"}
{"smiles": "COc1ccc(O)c(C(=O)C2c3ccccc3C(=O)N2c2ccc(C)cc2)c1", "note": "(centres undefined)", "Potency": "inconclusive: 15.8 µM [inhibitor, single point]"}
{"smiles": "O=C1NC(c2ccccc2Br)=N/C1=C\\c1ccco1", "Potency": "inconclusive: 11.2 µM [inhibitor, partial curve]"}
{"smiles": "CCc1ccc2oc(-c3cc(NC(=O)c4cc(OC)c(OC)c(OC)c4)ccc3O)nc2c1", "Potency": "inconclusive: 20 µM [inhibitor, single point]"}
